# Inconclusive results, whose numbers are uncertain, are shown with a selection of clear calls. Potencies of inconclusive entries are doubtful fits and often do not repeat. Calls of active or inactive are those of the source. The call rests on the fitted dose curve; in most records, active means well fitted activation curve with a large enough effect; inconclusive means small, poorly fitted or top-dose-only effect; inactive means no such curve, though single readings can be large or run the other way.
# Experiment: qHTS Assay for Identifying a Potential Treatment of Ataxia-Telangiectasia: Hit Validation;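 further: phospho-KAP1 level by AlphaLISA as a proxy for ATM-like kinase activity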
# Conditions: Ataxia-telangiectasia cell-based hit validation qHTS; in ATM-null A-T patient fibroblasts
# Excerpt: NIH Chemical Genomics Center [NCGC]
# NIH Molecular Libraries Probe Centers Network [MLPCN]
# Assay Submitter (PI): Wei Zheng and Yosef Shiloh
# Ataxia-telangiectasia (A-T) is a devastating and progressive disease for which, there is no cure. Although A-T is a multisystem disease, it is stereotyped characterized by its neurological symptoms such as truncal ataxia, due to cerebellar cortical degeneration of the Purkinje and granule cells. Other symptoms of A-T are telangiectasias (dilated blood vessels), primary immunodeficiency, marked sensitivity to ionizing radiation (IR), chromosomal instability and predisposition to cancer.
# The underlying genetic cause of A-T is null mutations in the ATM (A-T mutated) gene. ATM is a nuclear serine/threonine kinase that functions as a master regulator of the cellular responses to double strand breaks (DSBs) in the DNA. Upon activation by DSBs, ATM phosphorylates a plethora of downstream targets, including KAP-1 on […]. KAP-1 phosphorylation occurs shortly in response to DSBs and mediates global chromatin relaxation, which facilitates DSB repair. To screen for small molecules that will compensate for the loss of ATM in cells derived from A-T patients, we monitored KAP-1 phosphorylation as a readout for ATM-like activity using an AlphaLISA assay.
# Step,Parameter,Value,Description
# 1. Cell Plating, 3 ul, 500 cells/well in OPTI-MEM, 1% FBS, 1% Pen/Strep
# 3. Library compounds, 23 nl, 76.7 - 0.61uM dilution series final concentration
# 4. Incubation, 60 min, 37C, 5% CO2, 95% humidity
# 6. Incubation, 30 min, 37C, 5% CO2, 95% humidity
# 7. Reagent, 1 ul, Premixed detection reagents and lysis buffer
# 8. Reagent, 1 ul, 0.6% Antifoam A
# 9. Incubation, 6 hr, 25C, 95% humidity
# 10. Readout, EnVision, EnVision plate reader. AlphaScreen 1536-well protocol
# Cells were plated using medium-binding white solid-bottom tissue culture treated Kalypsys plates. Multidrop dispense of 3 uL of […] (hTERT immortalized A-T patient fibroblast cells). Detection reagent and lysis buffer was 3.75nM Rab-a-pKAP1 antibody bound to 75 ng/ul AlphaScreen SA donor bead, 3.75 nM Biot-M-a-KAP1 antibody bound to AlphaLISA protein A acceptor bead, 0.5x protease inhibitor cocktail and 0.25x PerkinElmer lysis buffer. EnVision protocol for 1536-well AlphaScreen read (30ms excitation, 100ms read), about 10 min/plate.
# Potency means the concentration at half of the fitted maximal effect.
row,Structure (SMILES),Potency
1,CCCCC(=O)N/N=C/c1c(O)n(CCC2=CCCCC2)c(=O)[nH]c1=O,active: 18.4 µM
2,CC1(C)C[C@H]2C=C(C=O)[C@]3(C=O)C[C@]3(C)[C@H]2C1,active: 29.2 µM
3,Cc1ccc(C)c(NP(=O)(Oc2ccccc2)Oc2ccccc2)c1,active: 29.2 µM
4,COC(=O)C1=C(c2ccc(OCc3ccccc3)cc2)C[C@@H]2CC[C@H]1N2C(=O)NCc1cccc(C(F)(F)F)c1,"inconclusive: 26 µM [activator, partial curve]"

# Reference: PubChem BioAssay AID493192 (National Center for Advancing Translational Sciences (NCATS), 2011)
